Reference: patent US20100081694A1, “COMPOSITION COMPRISING AT LEAST ONE PPAR AGONIST AND A LIPID COMPONENT” (EPAX AS, priority 2008, published 2010)
For at least one compound, name, drawing or mass did not settle the structure.

Experiments:
[1] = system: obesity prone C57BL/6N mouse; assay: Fasted blood glucose (Rosiglitazone+G3 study); type: in vivo; details: compared with control; overnight-fasted (15-hr) mice after 8 weeks of treatment; FIG. 5
[2] = system: obesity prone C57BL/6N mouse; assay: Body weight and body weight gain, mice on high-fat diet (Rosiglitazone+G3 study); type: in vivo; details: compared with mice fed high-fat diet (control)

## CN(CCOc1ccc(CC2SC(=O)NC2=O)cc1)c1ccccn1 (stereo not drawn) [rosiglitazone]
[1]
  fasted blood glucose levels: significantly lowered
[2]; after 9 weeks of treatment, FIG. 1
  body weight gain: reduced
[2]; data not shown
  body weight: reduced
